Laboratory results as given in article PMC11040352 (Advanced Science, 2024).

Assay: general procedure: Fmoc solid-phase peptide synthesis; Rink Amide resin; Oxyma/DIC; HBTU/HOBT/DIPEA for PEG linker

## NH2‐PEG3‐ACVPCADFPIWYC‐NH2
Cyclisation step, on linear precursor, bicyclic, sequence written open
  cyclisation yield: 37%

## PEPTIDE1{[NOTA].[PEG3].A.C.V.P.C.A.D.F.P.I.W.Y.C.[am]}|CHEM1{[TBMB]}$PEPTIDE1,CHEM1,4:R3-1:R1|PEPTIDE1,CHEM1,7:R3-1:R2|PEPTIDE1,CHEM1,15:R3-1:R3$$$V2.0
Conjugation step
  conjugation yield: 52%

Strings that start with PEPTIDE1 are HELM notation: dots part the residues, brackets hold end groups and non-standard residues.
